In US7862807B2, “Dendrimers as molecular translocators” (University of California, San Diego, priority 2002, dated 2011):
For at least one compound, name, drawing or mass did not settle the structure.

Tested on: HeLa S3 cells
Test: Sulphorhodamine B (SRB) cytotoxicity assay
Format: cell-based, human
Protocol: The cells were treated with varying concentrations (250 nM to 50 μM) of compound 12 for 4 hours at 37° C. The cells were fixed with trichloroacetic acid and were then subsequently stained with SRB dye. The cells were washed with water, and the SRB-bound complexes were solubilized in Tris buffer. The absorbance at 572 nm was measured in each sample.

With `Cl.Cl.Cl.Cl.Cl.Cl.Cl.Cl.Cl.N=C(N)NCCNC(=O)CCOCC(COCCC(=O)NCCNC(=N)N)(COCCC(=O)NCCNC(=N)N)NC(=O)CCNC(=O)CCOCC(COCCC(=O)NCCC(=O)NC(COCCC(=O)NCCNC(=N)N)(COCCC(=O)NCCNC(=N)N)COCCC(=O)NCCNC(=N)N)(COCCC(=O)NCCC(=O)NC(COCCC(=O)NCCNC(=N)N)(COCCC(=O)NCCNC(=N)N)COCCC(=O)NCCNC(=N)N)NC(=O)CCNC(=S)Nc1ccc(-c2c3ccc(=O)cc-3oc3cc(O)ccc23)c(C(=O)O)c1` (centres unmarked) [Compound 12] the “absorbance at 572 nm” value (250 nM to 50 μM, 4 hours, each sample) was 0.3 and 0.4 and the “absorbance at 572 nm” value (FIG. 21, up to 50 μM, 4 hour treatment) was 0.3 and 0.4.
